# Assay results from publication doi:10.1101/2023.07.23.23292673.
# Protein sequences, listed by entry. Tags and fused reporters are not part of them. Residues count along the entry.
# UniProt P35968, residues 20-1356: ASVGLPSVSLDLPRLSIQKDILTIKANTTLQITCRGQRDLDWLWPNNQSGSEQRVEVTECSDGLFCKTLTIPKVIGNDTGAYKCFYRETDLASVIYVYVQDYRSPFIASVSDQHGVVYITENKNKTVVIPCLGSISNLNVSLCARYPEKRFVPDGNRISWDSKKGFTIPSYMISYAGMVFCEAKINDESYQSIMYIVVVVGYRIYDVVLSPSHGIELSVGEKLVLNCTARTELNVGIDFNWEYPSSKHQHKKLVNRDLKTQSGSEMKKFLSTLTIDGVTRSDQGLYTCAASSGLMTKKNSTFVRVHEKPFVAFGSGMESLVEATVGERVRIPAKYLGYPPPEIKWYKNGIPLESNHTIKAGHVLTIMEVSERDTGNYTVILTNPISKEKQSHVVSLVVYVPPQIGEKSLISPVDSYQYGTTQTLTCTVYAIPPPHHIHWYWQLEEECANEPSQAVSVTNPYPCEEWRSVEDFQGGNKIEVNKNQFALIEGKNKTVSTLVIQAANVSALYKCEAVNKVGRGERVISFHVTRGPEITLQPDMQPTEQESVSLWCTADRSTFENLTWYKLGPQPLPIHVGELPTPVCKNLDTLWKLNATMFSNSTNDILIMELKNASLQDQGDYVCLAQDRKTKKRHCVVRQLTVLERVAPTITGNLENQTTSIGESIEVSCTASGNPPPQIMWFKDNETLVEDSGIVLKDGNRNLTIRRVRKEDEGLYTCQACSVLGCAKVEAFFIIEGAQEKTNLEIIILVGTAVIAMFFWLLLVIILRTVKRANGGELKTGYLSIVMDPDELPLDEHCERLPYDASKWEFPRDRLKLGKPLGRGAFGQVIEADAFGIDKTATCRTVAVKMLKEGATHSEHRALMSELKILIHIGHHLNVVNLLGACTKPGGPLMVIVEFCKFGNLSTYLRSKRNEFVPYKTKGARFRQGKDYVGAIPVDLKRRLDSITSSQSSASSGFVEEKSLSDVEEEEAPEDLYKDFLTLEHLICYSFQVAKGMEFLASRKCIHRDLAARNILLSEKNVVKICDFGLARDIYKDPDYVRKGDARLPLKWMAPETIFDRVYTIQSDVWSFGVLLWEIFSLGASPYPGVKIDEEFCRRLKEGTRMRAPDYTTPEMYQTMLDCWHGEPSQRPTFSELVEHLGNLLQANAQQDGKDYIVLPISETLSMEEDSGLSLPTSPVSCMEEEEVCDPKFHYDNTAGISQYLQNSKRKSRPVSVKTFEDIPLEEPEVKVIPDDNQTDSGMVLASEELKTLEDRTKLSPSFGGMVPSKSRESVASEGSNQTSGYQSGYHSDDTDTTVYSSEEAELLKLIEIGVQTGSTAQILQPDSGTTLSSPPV
# Results are given in words; binding and its absence hold for the method and conditions named. In cells and extracts the contact can be indirect. A yes stands for co-enrichment or nearness to the bait. Other partners may have been found.
# T1: MDMX (Double minute 4 protein) (human (endogenous in placental chorionic villi)) (UniProt O15151)
# T1 sequence: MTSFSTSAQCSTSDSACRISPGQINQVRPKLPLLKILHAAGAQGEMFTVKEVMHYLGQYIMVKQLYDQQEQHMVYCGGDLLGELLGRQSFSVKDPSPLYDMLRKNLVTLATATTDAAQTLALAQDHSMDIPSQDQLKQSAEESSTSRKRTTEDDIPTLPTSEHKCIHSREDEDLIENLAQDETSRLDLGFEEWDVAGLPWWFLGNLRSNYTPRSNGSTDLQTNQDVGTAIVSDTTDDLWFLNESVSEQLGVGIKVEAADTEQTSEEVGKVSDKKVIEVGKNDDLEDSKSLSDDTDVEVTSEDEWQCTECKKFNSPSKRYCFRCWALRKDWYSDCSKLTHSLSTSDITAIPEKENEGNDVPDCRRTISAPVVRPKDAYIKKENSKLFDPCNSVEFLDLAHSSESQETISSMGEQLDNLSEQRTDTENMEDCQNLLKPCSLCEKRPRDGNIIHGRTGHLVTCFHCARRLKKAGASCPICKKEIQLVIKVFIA
# T2: PICALM (Phosphatidylinositol-binding clathrin assembly protein) (human (endogenous in placental chorionic villi)) (UniProt Q13492)
# T2 sequence: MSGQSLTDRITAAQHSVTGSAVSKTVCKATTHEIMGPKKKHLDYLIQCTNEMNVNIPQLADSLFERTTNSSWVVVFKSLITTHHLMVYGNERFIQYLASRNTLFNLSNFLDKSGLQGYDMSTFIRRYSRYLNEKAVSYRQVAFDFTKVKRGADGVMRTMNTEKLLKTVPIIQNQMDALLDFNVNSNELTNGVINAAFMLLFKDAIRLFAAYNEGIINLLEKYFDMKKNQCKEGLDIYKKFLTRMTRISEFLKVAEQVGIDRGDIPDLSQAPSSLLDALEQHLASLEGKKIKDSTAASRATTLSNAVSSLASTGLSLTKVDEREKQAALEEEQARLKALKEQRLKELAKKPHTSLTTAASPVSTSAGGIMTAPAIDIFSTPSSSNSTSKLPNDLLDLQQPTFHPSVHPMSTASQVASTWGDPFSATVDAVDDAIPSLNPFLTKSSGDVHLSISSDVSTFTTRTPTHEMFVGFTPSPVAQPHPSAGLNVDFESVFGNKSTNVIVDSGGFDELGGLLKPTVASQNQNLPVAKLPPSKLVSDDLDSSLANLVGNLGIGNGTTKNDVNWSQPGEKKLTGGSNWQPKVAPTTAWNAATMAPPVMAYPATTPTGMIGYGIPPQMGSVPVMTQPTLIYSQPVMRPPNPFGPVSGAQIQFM
# Experiments:
# Assay in all cases: affinity purification with mass spectrometry
# [1] = target: VEGFR2 (human (endogenous in placental chorionic villi)) (UniProt P35968)
# [2] = target: T1, MDMX (Double minute 4 protein) (human (endogenous in placental chorionic villi))
# [3] = target: T2, PICALM (Phosphatidylinositol-binding clathrin assembly protein) (human (endogenous in placental chorionic villi))
Molecule,binding [1],binding [2],binding [3]
Immunoglobulin heavy constant alpha 1 (IGHA1) (from UniProt P01876-1),binds,–,–
"arginase-1 (enzyme, UniProt P05089 1-322) MSAKSRTIGIIGAPFSKGQPRGGVEEGPTVLRKAGLLEKLKEQECDVKDYGDLPFADIPNDSPFQIVKNPRSVGKASEQLAGKVAEVKKNGRISLVLGGDHSLAIGSISGHARVHPDLGVIWVDAHTDINTPLTTTSGNLHGQPVSFLLKELKGKIPDVPGFSWVTPCISAKDIVYIGLRDVDPGEHYILKTLGIKYFSMTEVDRLGIGKVMEETLSYLLGRKKRPIHLSFDVDGLDPSFTPATGTPVVGGLTYREGLYITEEIYKTGLLSGLDIMEVNPSLGKTPEEVTRTVNTAVAITLACFGLAREGNHKPIDYLNPPK",–,binds,–
"PDC-E2 (DLAT), the E2 component of pyruvate dehydrogenase (protein, UniProt P10515 87-647) SLPPHQKVPLPSLSPTMQAGTIARWEKKEGDKINEGDLIAEVETDKATVGFESLEECYMAKILVAEGTRDVPIGAIICITVGKPEDIEAFKNYTLDSSAAPTPQAAPAPTPAATASPPTPSAQAPGSSYPPHMQVLLPALSPTMTMGTVQRWEKKVGEKLSEGDLLAEIETDKATIGFEVQEEGYLAKILVPEGTRDVPLGTPLCIIVEKEADISAFADYRPTEVTDLKPQVPPPTPPPVAAVPPTPQPLAPTPSAPCPATPAGPKGRVFVSPLAKKLAVEKGIDLTQVKGTGPDGRITKKDIDSFVPSKVAPAPAAVVPPTGPGMAPVPTGVFTDIPISNIRRVIAQRLMQSKQTIPHYYLSIDVNMGEVLLVRKELNKILEGRSKISVNDFIIKASALACLKVPEANSSWMDTVIRQNHVVDVSVAVSTPAGLITPIVFNAHIKGVETIANDVVSLATKAREGKLQPHEFQGGTFTISNLGMFGIKNFSAIINPPQACILAIGASEDKLVPADNEKGFDVASMMSVTLSCDHRVVDGAVGAQWLAEFRKYLEKPITMLL",binds,–,–

# Continued, values first:
binding [1],binding [2],binding [3],Molecule
–,binds,binds,"Protein-glutamine gamma-glutamyltransferase 2 (TGM2) (enzyme, UniProt P21980 1-687) MAEELVLERCDLELETNGRDHHTADLCREKLVVRRGQPFWLTLHFEGRNYEASVDSLTFSVVTGPAPSQEAGTKARFPLRDAVEEGDWTATVVDQQDCTLSLQLTTPANAPIGLYRLSLEASTGYQGSSFVLGHFILLFNAWCPADAVYLDSEEERQEYVLTQQGFIYQGSAKFIKNIPWNFGQFEDGILDICLILLDVNPKFLKNAGRDCSRRSSPVYVGRVVSGMVNCNDDQGVLLGRWDNNYGDGVSPMSWIGSVDILRRWKNHGCQRVKYGQCWVFAAVACTVLRCLGIPTRVVTNYNSAHDQNSNLLIEYFRNEFGEIQGDKSEMIWNFHCWVESWMTRPDLQPGYEGWQALDPTPQEKSEGTYCCGPVPVRAIKEGDLSTKYDAPFVFAEVNADVVDWIQQDDGSVHKSINRSLIVGLKISTKSVGRDEREDITHTYKYPEGSSEEREAFTRANHLNKLAEKEETGMAMRIRVGQSMNMGSDFDVFAHITNNTAEEYVCRLLLCARTVSYNGILGPECGTKYLLNLNLEPFSEKSVPLCILYEKYRDCLTESNLIKVRALLVEPVINSYLLAERDLYLENPEIKIRILGEPKQKRKLVAEVSLQNPLPVALEGCTFTVEGAGLTEEQKTVEIPDPVEAGEEVKVRMDLLPLHMGLHKLVVNFESDKLKAVKGFRNVIIGPA"
binds,–,–,"MDMX (Double minute 4 protein) (protein, UniProt O15151 1-490) MTSFSTSAQCSTSDSACRISPGQINQVRPKLPLLKILHAAGAQGEMFTVKEVMHYLGQYIMVKQLYDQQEQHMVYCGGDLLGELLGRQSFSVKDPSPLYDMLRKNLVTLATATTDAAQTLALAQDHSMDIPSQDQLKQSAEESSTSRKRTTEDDIPTLPTSEHKCIHSREDEDLIENLAQDETSRLDLGFEEWDVAGLPWWFLGNLRSNYTPRSNGSTDLQTNQDVGTAIVSDTTDDLWFLNESVSEQLGVGIKVEAADTEQTSEEVGKVSDKKVIEVGKNDDLEDSKSLSDDTDVEVTSEDEWQCTECKKFNSPSKRYCFRCWALRKDWYSDCSKLTHSLSTSDITAIPEKENEGNDVPDCRRTISAPVVRPKDAYIKKENSKLFDPCNSVEFLDLAHSSESQETISSMGEQLDNLSEQRTDTENMEDCQNLLKPCSLCEKRPRDGNIIHGRTGHLVTCFHCARRLKKAGASCPICKKEIQLVIKVFIA"
binds,binds,–,"PICALM (Phosphatidylinositol-binding clathrin assembly protein) (protein, UniProt Q13492 1-652) MSGQSLTDRITAAQHSVTGSAVSKTVCKATTHEIMGPKKKHLDYLIQCTNEMNVNIPQLADSLFERTTNSSWVVVFKSLITTHHLMVYGNERFIQYLASRNTLFNLSNFLDKSGLQGYDMSTFIRRYSRYLNEKAVSYRQVAFDFTKVKRGADGVMRTMNTEKLLKTVPIIQNQMDALLDFNVNSNELTNGVINAAFMLLFKDAIRLFAAYNEGIINLLEKYFDMKKNQCKEGLDIYKKFLTRMTRISEFLKVAEQVGIDRGDIPDLSQAPSSLLDALEQHLASLEGKKIKDSTAASRATTLSNAVSSLASTGLSLTKVDEREKQAALEEEQARLKALKEQRLKELAKKPHTSLTTAASPVSTSAGGIMTAPAIDIFSTPSSSNSTSKLPNDLLDLQQPTFHPSVHPMSTASQVASTWGDPFSATVDAVDDAIPSLNPFLTKSSGDVHLSISSDVSTFTTRTPTHEMFVGFTPSPVAQPHPSAGLNVDFESVFGNKSTNVIVDSGGFDELGGLLKPTVASQNQNLPVAKLPPSKLVSDDLDSSLANLVGNLGIGNGTTKNDVNWSQPGEKKLTGGSNWQPKVAPTTAWNAATMAPPVMAYPATTPTGMIGYGIPPQMGSVPVMTQPTLIYSQPVMRPPNPFGPVSGAQIQFM"
